# Experimental data from patent publication US9517222B2, “Method for the treatment of senile dementia of the Alzheimer's type” (Phenomenome Discoveries Inc., priority 2007, dated 2016).
# Where no unit stands, none is given here, and values compare only within one read-out.
# What was measured:
# [1] = Serum ethanolamine phospholipid levels in human cohorts (dementia severity, post-mortem pathology, age) by flow-injection MS/MS
# [2] = Serum ethanolamine phospholipid ratios to PtdEt 16:0/18:0 (M01) in human cohorts
# [3] = serum, females, post mortem SDAT
# [4] = serum, females, post mortem control
smiles,measurement,setting,value
"CCCCC/C=C\C/C=C\C/C=C\C/C=C\CCCC(=O)OC(CO/C=C\CCCCCCCCCCCCCCCC)COP(=O)(O)OCCN (centres unmarked) [Metabolite M22, Plasmenyl 18:0/20:4]",Ratio of serum levels,"[1]; AD, All to CN, Male",0.708
same,Ratio of serum levels,"[1]; ADAS 5-19 to CN, Male",0.758
same,Ratio of serum levels,"[1]; ADAS 20-39 to 5-19, Male",0.917
same,Ratio of serum levels,"[1]; ADAS 20-39 to CN, Male",0.695
same,Ratio of serum levels,"[1]; ADAS 40-70 to 5-19, Male",0.791
same,Ratio of serum levels,"[1]; ADAS 40-70 to 20-39, Male",0.863
same,Ratio of serum levels,"[1]; ADAS 40-70 to CN, Male",0.600
same,"Serum level, Mean","[1]; Cognitive Normal, Female",0.933
same,"Average serum level, Mean","[1]; Cognitive Normal, Male",1.040
same,"Serum level, Mean","[1]; Post Mortem Ctl, Male",0.217
same,"Serum level, Mean",[1]; Post Mortem SDAT Male,0.106
same,Ratio of serum levels,"[1]; Post mortem SDAT vs Control, Male",0.486
same,"Serum level, Mean","[1]; SDAT, ADAS 5-19, Female",0.753
same,"Average serum level, Mean","[1]; SDAT, ADAS 5-19, Male",0.789
same,"Serum level, Mean","[1]; SDAT, ADAS 20-39, Female",0.738
same,"Average serum level, Mean","[1]; SDAT, ADAS 20-39, Male",0.723
same,"Serum level, Mean","[1]; SDAT, ADAS 40-70, Female",0.620
same,"Average serum level, Mean","[1]; SDAT, ADAS 40-70, Male",0.624
same,"Serum level, Mean","[1]; SDAT_all, Female",0.702
same,"Average serum level, Mean","[1]; SDAT_all, Male",0.736
same,"Ratio, ADAS 5-19 to CN, Female","[1]; serum level ratio, females, ADAS 5-19 vs CN",0.807
same,"Ratio, ADAS 20-39 to 5-19, Female","[1]; serum level ratio, females, ADAS 20-39 vs ADAS 5-19",0.979
same,"Ratio, ADAS 20-39 to CN, Female","[1]; serum level ratio, females, ADAS 20-39 vs CN",0.790
same,"Ratio, ADAS 40-70 to 5-19, Female","[1]; serum level ratio, females, ADAS 40-70 vs ADAS 5-19",0.824
same,"Ratio, ADAS 40-70 to 20-39, Female","[1]; serum level ratio, females, ADAS 40-70 vs ADAS 20-39",0.841
same,"Ratio, ADAS 40-70 to CN, Female","[1]; serum level ratio, females, ADAS 40-70 vs CN",0.665
same,"Ratio, 50-59 vs. 40-49, Female","[1]; serum level ratio, females, age 50-59 vs 40-49",0.832
same,"Ratio, 60-69 vs. 40-49, Female","[1]; serum level ratio, females, age 60-69 vs 40-49",0.741
same,"Ratio, 70+ vs. 40-49, Female","[1]; serum level ratio, females, age 70+ vs 40-49",0.817
same,"Ratio, AD, All to CN, Female","[1]; serum level ratio, females, all AD vs cognitively normal",0.752
same,"Ratio, Autopsy AD vs. Control, Female","[1]; serum level ratio, females, autopsy AD vs control",0.593
same,"Ratio, 50-59 vs. 40-49, Male","[1]; serum level ratio, males, age 50-59 vs 40-49",1.179
same,"Ratio, 60-69 vs. 40-49, Male","[1]; serum level ratio, males, age 60-69 vs 40-49",1.183
same,"Ratio, 70+ vs. 40-49, Male","[1]; serum level ratio, males, age 70+ vs 40-49",1.149
same,"Mean serum level, Age Ctl, 30-39, Female","[1]; serum, females, age 30-39",0.938
same,"Mean serum level, Age Ctl, 40-49, Female","[1]; serum, females, age 40-49",1.025
same,"Mean serum level, Age Ctl, 50-59, Female","[1]; serum, females, age 50-59",0.853
same,"Mean serum level, Age Ctl, 60-69, Female","[1]; serum, females, age 60-69",0.759
same,"Mean serum level, Age Ctl, 70+, Female","[1]; serum, females, age 70+",0.837
same,"Mean serum level, Post Mortem SDAT, Female",[1]; [3],0.168
same,"Mean serum level, Post Mortem Ctl, Female",[1]; [4],0.283
same,"Mean serum level, Age Ctl, 30-39, Male","[1]; serum, males, age 30-39",1.054
same,"Mean serum level, Age Ctl, 40-49, Male","[1]; serum, males, age 40-49",0.788
same,"Mean serum level, Age Ctl, 50-59, Male","[1]; serum, males, age 50-59",0.930
same,"Mean serum level, Age Ctl, 60-69, Male","[1]; serum, males, age 60-69",0.933
same,"Mean serum level, Age Ctl, 70+, Male","[1]; serum, males, age 70+",0.906
same,Ratio of ethanolamine phospholipid ratios to M01 between cohorts,"[2]; AD, All to CN, Male",0.669
same,Ratio of ethanolamine phospholipid ratios to M01 between cohorts,"[2]; ADAS 5-19 to CN, Male",0.714
same,Ratio of ethanolamine phospholipid ratios to M01 between cohorts,"[2]; ADAS 20-39 to CN, Male",0.661
same,Ratio of ethanolamine phospholipid ratios to M01 between cohorts,"[2]; ADAS 40-70 to CN, Male",0.603
same,"Average serum ethanolamine phospholipid ratio to M01, Mean","[2]; Cognitive Normal, Male, serum",9.309
same,"Average serum ethanolamine phospholipid ratio to M01, Mean","[2]; SDAT, ADAS 5-19, Male, serum",6.651
same,"Average serum ethanolamine phospholipid ratio to M01, Mean","[2]; SDAT, ADAS 20-39, Male, serum",6.157
same,"Average serum ethanolamine phospholipid ratio to M01, Mean","[2]; SDAT, ADAS 40-70, Male, serum",5.616
same,"Average serum ethanolamine phospholipid ratio to M01, Mean","[2]; SDAT_all, Male, serum",6.230
same,"Ethanolamine Phospholipid Ratio to M01, Mean, Age Ctl, 30-39, Female","[2]; human serum, females aged 30-39",8.971
same,"Ethanolamine Phospholipid Ratio to M01, Mean, Age Ctl, 40-49, Female","[2]; human serum, females aged 40-49",9.244
same,"Ethanolamine Phospholipid Ratio to M01, Mean, Age Ctl, 50-59, Female","[2]; human serum, females aged 50-59",8.625
same,"Ratio of Ethanolamine Phospholipid Ratio to M01, 50-59 vs. 40-49, Female","[2]; human serum, females aged 50-59 vs. females aged 40-49",0.933
same,"Ethanolamine Phospholipid Ratio to M01, Mean, Age Ctl, 60-69, Female","[2]; human serum, females aged 60-69",6.263
same,"Ratio of Ethanolamine Phospholipid Ratio to M01, 60-69 vs. 40-49, Female","[2]; human serum, females aged 60-69 vs. females aged 40-49",0.678
same,"Ethanolamine Phospholipid Ratio to M01, Mean, Age Ctl, 70+_Female","[2]; human serum, females aged 70+",6.923
same,"Ratio of Ethanolamine Phospholipid Ratio to M01, 70+ vs. 40-49, Female","[2]; human serum, females aged 70+ vs. females aged 40-49",0.749
same,"Ratio of Ethanolamine Phospholipid Ratio to M01, 50-59 vs. 40-49, Male","[2]; human serum, males aged 50-59 vs. males aged 40-49",1.162
same,"Ratio of Ethanolamine Phospholipid Ratio to M01, 60-69 vs. 40-49, Male","[2]; human serum, males aged 60-69 vs. males aged 40-49",0.970
same,"Ratio of Ethanolamine Phospholipid Ratio to M01, 70+ vs. 40-49, Male","[2]; human serum, males aged 70+ vs. males aged 40-49",0.942
same,"Ratio of ethanolamine phospholipid ratio to M01, ADAS 5-19 to CN, Female","[2]; serum, females, ADAS 5-19 vs cognitive normal",0.873
same,"Ratio of ethanolamine phospholipid ratio to M01, ADAS 20-39 to 5-19, Female","[2]; serum, females, ADAS 20-39 vs ADAS 5-19",0.949
same,"Ratio of ethanolamine phospholipid ratio to M01, ADAS 20-39 to CN, Female","[2]; serum, females, ADAS 20-39 vs cognitive normal",0.828
same,"Ratio of ethanolamine phospholipid ratio to M01, ADAS 40-70 to 5-19, Female","[2]; serum, females, ADAS 40-70 vs ADAS 5-19",0.755
same,"Ratio of ethanolamine phospholipid ratio to M01, ADAS 40-70 to 20-39, Female","[2]; serum, females, ADAS 40-70 vs ADAS 20-39",0.795
same,"Ratio of ethanolamine phospholipid ratio to M01, ADAS 40-70 to CN, Female","[2]; serum, females, ADAS 40-70 vs cognitive normal",0.659
same,"Ethanolamine phospholipid ratio to M01, Mean, SDAT, ADAS 5-19, Female","[2]; serum, females, SDAT ADAS 5-19",7.041
same,"Ethanolamine phospholipid ratio to M01, Mean, SDAT, ADAS 20-39, Female","[2]; serum, females, SDAT ADAS 20-39",6.681
same,"Ethanolamine phospholipid ratio to M01, Mean, SDAT, ADAS 40-70, Female","[2]; serum, females, SDAT ADAS 40-70",5.313
same,"Ratio of ethanolamine phospholipid ratio to M01, AD, All to CN, Female","[2]; serum, females, all AD vs cognitive normal",0.782
same,"Ethanolamine phospholipid ratio to M01, Mean, SDAT_all Female","[2]; serum, females, all SDAT",6.310
same,"Ratio of ethanolamine phospholipid ratio to M01, Autopsy AD vs. Control, Female","[2]; serum, females, autopsy AD vs post mortem control",0.831
same,"Ethanolamine phospholipid ratio to M01, Mean, Cognitive Normal, Female","[2]; serum, females, cognitive normal",8.068
same,"Ethanolamine phospholipid ratio to M01, Mean, Post Mortem SDAT Female",[2]; [3],1.480
same,"Ethanolamine phospholipid ratio to M01, Mean, Post Mortem Ctl, Female",[2]; [4],1.782
same,"Ratio of ethanolamine phospholipid ratio to M01, ADAS 20-39 to 5-19, Male","[2]; serum, males, SDAT ADAS 20-39 vs ADAS 5-19",0.926
same,"Ratio of ethanolamine phospholipid ratio to M01, ADAS 40-70 to 5-19, Male","[2]; serum, males, SDAT ADAS 40-70 vs ADAS 5-19",0.844
same,"Ratio of ethanolamine phospholipid ratio to M01, ADAS 40-70 to 20-39, Male","[2]; serum, males, SDAT ADAS 40-70 vs ADAS 20-39",0.912
same,"Ethanolamine phospholipid ratio to M01, Mean, Age Ctl, 30-39, Male","[2]; serum, males, age control 30-39",8.811
same,"Ethanolamine phospholipid ratio to M01, Mean, Age Ctl, 40-49, Male","[2]; serum, males, age control 40-49",7.346
same,"Ethanolamine phospholipid ratio to M01, Mean, Age Ctl, 50-59, Male","[2]; serum, males, age control 50-59",8.537
same,"Ethanolamine phospholipid ratio to M01, Mean, Age Ctl, 60-69, Male","[2]; serum, males, age control 60-69",7.124
same,"Ethanolamine phospholipid ratio to M01, Mean, Age Ctl, 70+_Male","[2]; serum, males, age control 70+",6.920
same,"Ethanolamine phospholipid ratio to M01, Mean, Post Mortem SDAT Male","[2]; serum, males, post mortem SDAT",1.199
same,"Ratio of ethanolamine phospholipid ratio to M01, SDAT vs Control (post mortem, males)","[2]; serum, males, post mortem SDAT vs post mortem control",0.634
same,"Ethanolamine phospholipid ratio to M01, Mean, Post Mortem Ctl, Male","[2]; serum, males, post mortem control",1.890
